These results are taken from PubChem BioAssay AID248 (DTP/NCI, 2004).

For this assay, the system named is L1210 leukemia ip in BDF1 mice, survival T/C. Nature of the assay: NCI In Vivo Anticancer Drug Screen. Data for tumor model L1210 Leukemia (intraperitoneal) in B6D2F1 (BDF1) mice. The conditions noted are these: T/C endpoint: mean survival time, higher T/C = longer survival.
The mark [1] stands for this setting: dose: 200.0 mg/kg/injection, schedule: Q04DX002 (ip), vehicle: saline with Tween-80.
Where [2] appears, read: dose: 400.0 mg/kg/injection, schedule: Q04DX002 (ip), vehicle: saline with Tween-80.
The mark [3] stands for this setting: dose: 200.0 mg/kg/injection, schedule: Q01DX009 (ip), vehicle: saline.
Setting [4] is: dose: 400.0 mg/kg/injection, schedule: Q01DX009 (ip), vehicle: saline.
The mark [5] stands for this setting: dose: 6.25 mg/kg/injection, schedule: Q01DX009 (ip), vehicle: Klucel (hydroxypropylcellulose) (HPC).
Where [6] appears, read: dose: 200.0 mg/kg/injection, schedule: Q04DX003 (ip), vehicle: Klucel (hydroxypropylcellulose) (HPC).
[7] abbreviates: dose: 400.0 mg/kg/injection, schedule: Q04DX003 (ip), vehicle: Klucel (hydroxypropylcellulose) (HPC).
The mark [8] stands for this setting: dose: 100.0 mg/kg/injection, schedule: Q04DX003 (ip), vehicle: Klucel (hydroxypropylcellulose) (HPC).
The mark [9] stands for this setting: dose: 100.0 mg/kg/injection, schedule: Q01DX001 (ip), vehicle: other.
Where [10] appears, read: dose: 200.0 mg/kg/injection, schedule: Q01DX001 (ip), vehicle: other.
[11] abbreviates: dose: 400.0 mg/kg/injection, schedule: Q01DX001 (ip), vehicle: other.

The list does not hold the whole screen: it is rich in T/C values a quarter to a half above the control, in often repeated tests (any T/C) and in doses without a T/C. Other doses and runs of a compound stand elsewhere. T/C is the treated group as % of the vehicle group. Some entries give survivors of the animals treated and no T/C: the source files T/C as zero there, which appears to mark a toxic dose or a test without result, not a measured value. Some doses without a T/C left all or most animals alive at the check, yet need not have been tolerated: the source hardly ever lists a survival T/C far under the control, and the zero likely stands for such cases as well. Counts of survivors are from the toxicity check (mostly the fifth day) where no day follows; animals may have died later. Schedules are NCI's codes, read here as Q, the interval in days (D) or hours (H), X, the number of doses. Some doses were run more than once; the values are given in rising order. Some schedules carry Z or #; the key to these is not given. For survival time, this PubChem deposit counts one and a half times the control or more as active, and values a quarter to a half above the control carry no call in these data; other NCI protocols may use other cut-offs. Some T/C values carry the count of animals alive at the toxicity check (mostly the fifth day); without a count, all were alive then. Signs of the kind (2×) stand for listed records that agree.

On to `O=C(Nc1ccc(C2=NCCN2)cc1)Nc1cccc(NC(=O)Nc2cccc(C3=NCCN3)c2)c1`, for which the T/C (dose: 4.0 mg/kg/injection, schedule: Q01DX Z (ip), vehicle: carboxymethylcellulose (CMC)) was 145 and 147 % of control. The survivor count runs as follows: (dose: 31.0 mg/kg/injection, schedule: Q01DX Z (ip), vehicle: water) 6 of 6; (dose: 62.0 mg/kg/injection, schedule: Q01DX Z (ip), vehicle: saline) 6 of 6; (dose: 125.0 mg/kg/injection, schedule: Q01DX Z (ip), vehicle: saline) 5 of 6; (dose: 250.0 mg/kg/injection, schedule: Q01DX Z (ip), vehicle: saline) 1 of 6; (dose: 500.0 mg/kg/injection, schedule: Q01DX Z (ip), vehicle: saline) 0 of 6.

Take `CC(=O)c1sc2sc(C(C)=O)c(NC(=S)Nc3cccc(C(F)(F)F)c3)c2c1NC(=S)Nc1cccc(C(F)(F)F)c1`: the T/C by setting is: (dose: 100.0 mg/kg/injection, schedule: Q04DX002 (ip), vehicle: saline with Tween-80) 86, 88, 91, 98 % of control; under setting [1], 92 and 94 % of control; under setting [2], 91, 94, 95 % of control. The survivor count by setting is: under setting [1], 3 of 3 and 6 of 6; under setting [2], 6 of 6; (dose: 400.0 mg/kg/injection, schedule: Q04DX003 (ip), vehicle: saline with Tween-80) 3 of 6.

For `COc1cc(C=Nc2cccc(C(=O)O)c2)ccc1N(CCCl)CCCl`, the survivor count is, setting by setting: (dose: 100.0 mg/kg/injection, schedule: Q01DX001 (ip), vehicle: carboxymethylcellulose (CMC)) 1 of 4; (dose: 200.0 mg/kg/injection, schedule: Q01DX001 (ip), vehicle: carboxymethylcellulose (CMC)) 0 of 4; (dose: 400.0 mg/kg/injection, schedule: Q01DX001 (ip), vehicle: carboxymethylcellulose (CMC)) 0 of 4.

Turning to `CC(=O)c1c(C)cc(C)nc1C`, the survivor count (dose: 400.0 mg/kg/injection, schedule: Q01DX001 (ip), vehicle: saline) is given as 0 of 4.

Take `COC(=O)C(Br)CBr` (stereo unspecified): the survivor count was 2 of 6 under setting [3]; 0 of 6 under setting [4]; 3 of 6 (dose: 400.0 mg/kg/injection, schedule: Q04DX003 (ip), vehicle: saline).

For the compound `CN(C)P(=O)(N(C)C)N1CC1`, the T/C is, setting by setting: (dose: 60.0 mg/kg/injection, schedule: Q01DX001 (ip), vehicle: saline) 126 % of control; (dose: 120.0 mg/kg/injection, schedule: Q01DX001 (ip), vehicle: saline) 144 % of control. Under “dose: 240.0 mg/kg/injection, schedule: Q01DX001 (ip), vehicle: saline”, the survivor count is listed as 6 of 6.

Consider `CCOC(=O)CCC(NC(=O)c1cnc(N)s1)C(=O)OCC` (stereo unspecified), for which, where the note is “dose: 100.0 mg/kg/injection, schedule: Q01DX001 (ip), vehicle: saline with Tween-80”, the T/C is 125 % of control.

For the compound `CC(NCCN1CC1)C1CC1` (stereo unspecified), the T/C (dose: 10.0 mg/kg/injection, schedule: Q01DX009 (ip), vehicle: saline) was 130 % of control and the T/C (dose: 40.0 mg/kg/injection, schedule: Q01DX009 (ip), vehicle: saline) was 143 % of control. In addition, the survivor count reads like this: (dose: 100.0 mg/kg/injection, schedule: Q01DX009 (ip), vehicle: saline) 0 of 6; under setting [3], 0 of 6; under setting [4], 0 of 6.

On to `c1cc[c]([Pb]([S]c2ccccn2)([c]2ccccc2)[c]2ccccc2)cc1`, for which the survivor count by setting is: under setting [5], 6 of 6; (dose: 12.5 mg/kg/injection, schedule: Q01DX009 (ip), vehicle: Klucel (hydroxypropylcellulose) (HPC)) 3 of 6; (dose: 25.0 mg/kg/injection, schedule: Q01DX009 (ip), vehicle: Klucel (hydroxypropylcellulose) (HPC)) 1 of 3; (dose: 50.0 mg/kg/injection, schedule: Q01DX009 (ip), vehicle: Klucel (hydroxypropylcellulose) (HPC)) 0 of 3; (dose: 100.0 mg/kg/injection, schedule: Q01DX009 (ip), vehicle: Klucel (hydroxypropylcellulose) (HPC)) 0 of 3; (dose: 100.0 mg/kg/injection, schedule: Q04DX002 (ip), vehicle: Klucel (hydroxypropylcellulose) (HPC)) 2 of 3 and 3 of 3. The survivor count was 2 of 3 (dose: 200.0 mg/kg/injection, schedule: Q04DX002 (ip), vehicle: Klucel (hydroxypropylcellulose) (HPC)) and 0 of 3 (dose: 400.0 mg/kg/injection, schedule: Q04DX002 (ip), vehicle: Klucel (hydroxypropylcellulose) (HPC)).

As for `CC1CCC(C(C)C)C(NCc2ccccc2O)C1` (stereo unspecified), the survivor count is, setting by setting: under setting [6], 2 of 6; under setting [7], 0 of 6.

As for `On1cnc(=S)c2[nH]cnc21`, the T/C by setting is: (dose: 375.0 mg/kg/injection, schedule: Q01DX Z (ip), vehicle: carboxymethylcellulose (CMC)) 133 % of control; (dose: 500.0 mg/kg/injection, schedule: Q01DX Z (ip), vehicle: carboxymethylcellulose (CMC)) 125 % of control.

As to `NC1=NC(=S)C2N=C(N=Nc3ccc(C(=O)NC(CCC(=O)O)C(=O)O)cc3)N=C2N1` (stereo unspecified), the T/C (dose: 0.78 mg/kg/injection, schedule: Q01DX009 (ip), vehicle: Klucel (hydroxypropylcellulose) (HPC)) was 132 % of control [4 of 6 alive]; the T/C (dose: 3.13 mg/kg/injection, schedule: Q01DX009 (ip), vehicle: Klucel (hydroxypropylcellulose) (HPC)) is 134 and 149 % of control; the T/C under setting [5] is 140 % of control; the T/C (dose: 25.0 mg/kg/injection, schedule: Q04DX003 (ip), vehicle: Klucel (hydroxypropylcellulose) (HPC)) is 132 and 148 % of control; the T/C (dose: 50.0 mg/kg/injection, schedule: Q04DX003 (ip), vehicle: Klucel (hydroxypropylcellulose) (HPC)) is 144 % of control; the T/C under setting [8] is 130 % of control. In addition, the survivor count under setting [8] is 2 of 6, the survivor count under setting [6] is on record as 1 of 6 and the survivor count under setting [7] was 0 of 6.

`CCCCCCCCCCCCSC1CC(=O)N(c2ccccc2)C1=O` (stereo unspecified): the T/C by setting is: under setting [9], 86, 90, 94 (2×), 100 % of control; under setting [10], 87, 93, 94, 96, 121 % of control; under setting [11], 87, 91, 91 [2 of 3 alive], 98 % of control.

For `CCCCCCCCOC(=O)C1=NC=NC1=[N+]=[N-]`, the survivor count by setting is: (dose: 50.0 mg/kg/injection, schedule: Q01DX001 (ip), vehicle: other) 0 of 4; (dose: 80.0 mg/kg/injection, schedule: Q01DX001 (ip), vehicle: other) 0 of 6; under setting [9], 0 of 4; under setting [10], 0 of 4; under setting [11], 0 of 4.

`Cc1ncnc2c1ncn2C1OC(CO)C(O)C1O` (stereo unspecified): the T/C is, setting by setting: (dose: 0.81 mg/kg/injection, schedule: Q01DX015 (ip), vehicle: saline, evaluated on day 5) 131 % of control; (dose: 0.81 mg/kg/injection, schedule: Q01DX015 (ip), vehicle: saline, evaluated on day 45) 131 % of control.

In the case of `O=[N+]([O-])c1ccc(C(Br)Br)cc1`, the survivor count under setting [7] was 0 of 6.

In the case of `CCCCCCCCCCCCCCCCCC(=O)N/N=C\c1c(O)ccc2ccccc12`, the survivor count (dose: 200.0 mg/kg/injection, schedule: Q01DX009 (ip), vehicle: Klucel (hydroxypropylcellulose) (HPC)) is reported as 6 of 6.
